# Measured values taken from the supplement of paper PMC8728848.
# The list shows a part of the results.
# Columns and labels:
# Test in all cases: glycan array binding signal (z-score within array); higher = stronger binding
# Conditions in all cases: glycan notation: IUPAC condensed, linker removed
# Fuc(a1-2)Gal = target: Fuc(a1-2)Gal
# In short: (§1)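 Glycan array binding is given as a within-array Z-score, which can be read as non-binding when negative. The arrays, 3228 of them, came from the Consortium for Functional Glycomics database and were retained only where the protein sequence was available. Z-scores were averaged across arrays of the same protein sequence at different concentrations or buffers and across linkers.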
# Fuc(a1-2)Gal(b1-3)GalNAc = target: Fuc(a1-2)Gal(b1-3)GalNAc
# In short: as §1
# [1] = target: Fuc(a1-2)Gal(b1-3)GalNAc(a1-3)[Fuc(a1-2)]Gal(b1-4)Glc
# In short: as §1
# [2] = target: Fuc(a1-2)Gal(b1-3)GalNAc(a1-3)[Fuc(a1-2)]Gal(b1-4)GlcNAc
# In short: as §1
# [3] = target: Fuc(a1-2)Gal(b1-3)GalNAc(b1-3)Gal
# In short: as §1
# [4] = target: Fuc(a1-2)Gal(b1-3)GalNAc(b1-3)Gal(a1-4)Gal(b1-4)Glc
# In short: as §1
# [5] = target: Fuc(a1-2)Gal(b1-3)GalNAc(b1-4)[Neu5Ac(a2-3)]Gal(b1-4)Glc
# In short: as §1
# Fuc(a1-2)Gal(b1-3)GlcNAc = target: Fuc(a1-2)Gal(b1-3)GlcNAc
# In short: as §1
# [6] = target: Fuc(a1-2)Gal(b1-3)GlcNAc(b1-2)Man(a1-3)[Fuc(a1-2)Gal(b1-3)GlcNAc(b1-2)Man(a1-6)]Man(b1-4)GlcNAc(b1-4)GlcNAc
# In short: as §1
# [7] = target: Fuc(a1-2)Gal(b1-3)GlcNAc(b1-2)Man(a1-3)[Fuc(a1-2)Gal(b1-3)GlcNAc(b1-2)Man(a1-6)]Man(b1-4)GlcNAc(b1-4)[Fuc(a1-6)]GlcNAc
# In short: as §1
# [8] = target: Fuc(a1-2)Gal(b1-3)GlcNAc(b1-3)Gal(b1-4)Glc
# In short: as §1
# [9] = target: Fuc(a1-2)Gal(b1-3)GlcNAc(b1-3)GalNAc
# In short: as §1
# [10] = target: Fuc(a1-2)Gal(b1-3)GlcNAc(b1-3)[Fuc(a1-2)Gal(b1-3)GlcNAc(b1-6)]GalNAc
# In short: as §1
# [11] = target: Fuc(a1-2)Gal(b1-3)GlcNAc(b1-3)[Gal(b1-4)GlcNAc(b1-6)]Gal(b1-4)Glc
# In short: as §1
# [12] = target: Fuc(a1-2)Gal(b1-3)GlcNAc(b1-3)[Neu5Ac(a2-6)Gal(b1-4)GlcNAc(b1-6)]Gal(b1-4)Glc
# In short: as §1
# [13] = target: Fuc(a1-2)Gal(b1-3)GlcNAc6S
# In short: as §1
# [14] = target: Fuc(a1-2)Gal(b1-3)[Fuc(a1-4)]GlcNAc
# In short: as §1
# [15] = target: Fuc(a1-2)Gal(b1-3)[Fuc(a1-4)]GlcNAc(b1-2)Man(a1-3)[Fuc(a1-2)Gal(b1-3)[Fuc(a1-4)]GlcNAc(b1-2)Man(a1-3)]Man(b1-4)GlcNAc(b1-4)GlcNAc
# In short: as §1
# [16] = target: Fuc(a1-2)Gal(b1-3)[Fuc(a1-4)]GlcNAc(b1-2)Man(a1-3)[Fuc(a1-2)Gal(b1-3)[Fuc(a1-4)]GlcNAc(b1-2)Man(a1-6)]Man(b1-4)GlcNAc(b1-4)[Fuc(a1-6)]GlcNAc(b1-4)[Fuc(a1-6)]GlcNAc
# In short: as §1
# [17] = target: Fuc(a1-2)Gal(b1-3)[Fuc(a1-4)]GlcNAc(b1-3)[Fuc(a1-3)[Gal(b1-4)]GlcNAc(b1-6)]Gal(b1-4)Glc
# In short: as §1
# [18] = target: Fuc(a1-2)Gal(b1-3)[Fuc(a1-4)]GlcNAc(b1-3)[Gal(b1-4)GlcNAc(b1-6)]Gal(b1-4)Glc
# In short: as §1
# [19] = target: Fuc(a1-2)Gal(b1-4)Fuc(a1-3)]GlcNAc(b1-2)Man(a1-3)[Fuc(a1-2)Gal(b1-4)[Fuc(a1-3)]GlcNAc(b1-2)Man(a1-6)]Man(b1-4)GlcNAc(b1-4)GlcNAc
# In short: as §1
# Fuc(a1-2)Gal(b1-4)Glc = target: Fuc(a1-2)Gal(b1-4)Glc
# In short: as §1
# Fuc(a1-2)Gal(b1-4)Glc6S = target: Fuc(a1-2)Gal(b1-4)Glc6S
# In short: as §1
# Fuc(a1-2)Gal(b1-4)GlcNAc = target: Fuc(a1-2)Gal(b1-4)GlcNAc
# In short: as §1
# [20] = target: Fuc(a1-2)Gal(b1-4)GlcNAc(b1-2)Man
# In short: as §1
# [21] = target: Fuc(a1-2)Gal(b1-4)GlcNAc(b1-2)Man(a1-3)[Fuc(a1-2)Gal(b1-4)GlcNAc(b1-2)Man(a1-6)]Man(b1-4)GlcNAc(b1-4)GlcNAc
# In short: as §1
# [22] = target: Fuc(a1-2)Gal(b1-4)GlcNAc(b1-2)Man(a1-3)[Fuc(a1-2)Gal(b1-4)GlcNAc(b1-2)Man(a1-6)]Man(b1-4)GlcNAc(b1-4)[Fuc(a1-6)]GlcNAc
# In short: as §1
# [23] = target: Fuc(a1-2)Gal(b1-4)GlcNAc(b1-2)[Fuc(a1-2)Gal(b1-4)GlcNAc(b1-4)]Man(a1-3)[Fuc(a1-2)Gal(b1-4)GlcNAc(b1-2)Man(a1-6)]Man(b1-4)GlcNAc(b1-4)GlcNAc
# In short: as §1
# [24] = target: Fuc(a1-2)Gal(b1-4)GlcNAc(b1-3)Gal(b1-4)GlcNAc
# In short: as §1
binder,measurement,setting,value
"SspB A3vp1 (Streptococcus gordonii), Q54186 (protein) MTNEADYQAKLAAYQTELARVQKANADAKATYEKAVEDNKAKNAAIKAENEEIKQRNAVAKTDYEAKLAKYEADLAKYKKEFAAYTAALAEAESKKKQDGYLSEPRSQSLNFKSEPNAIRTIDSSVHQYGQQELDALVKSWGISPTNPDRKKSRAYSYFNAINSNNTYAKLVLEKDKPVDVTYTGLKNSSFNGKKISKVVYTYTLKETGFNDGTKMTMFASSDPTVTAWYNDYFTSTNINVKVKFYDEEGQLMNLTGGLVNFSSLNRGNGSGAIDKDAIESVRNFNGRYIPISGSSIKIHENNSAYADSSNAEKSLGARWNTSEWDTTSSPNNWYGAIVGEITQSEISFNMASSKSGNIWFAFNSNINAIGVPTKPVAPTAPTQPMYETEKPLEPAPVAPSYENEPTPPVKTPDQPEPSKPAAALEHHHHHH",glycan array binding signal (z-score),Fuc(a1-2)Gal,-0.712
same,glycan array binding signal (z-score),Fuc(a1-2)Gal(b1-3)GalNAc,-0.908
same,glycan array binding signal (z-score),[1],-0.395
same,glycan array binding signal (z-score),[2],-0.064
same,glycan array binding signal (z-score),[3],-0.686
same,glycan array binding signal (z-score),[4],-0.246
same,glycan array binding signal (z-score),[5],0.065
same,glycan array binding signal (z-score),Fuc(a1-2)Gal(b1-3)GlcNAc,-0.862
same,glycan array binding signal (z-score),[6],6.26
same,glycan array binding signal (z-score),[7],0.989
same,glycan array binding signal (z-score),[8],-0.491
same,glycan array binding signal (z-score),[9],-0.383
same,glycan array binding signal (z-score),[10],1.55
same,glycan array binding signal (z-score),[11],-1.08
same,glycan array binding signal (z-score),[12],-0.004
same,glycan array binding signal (z-score),[13],-0.03
same,glycan array binding signal (z-score),[14],0.448
same,glycan array binding signal (z-score),[15],0.591
same,glycan array binding signal (z-score),[16],0.066
same,glycan array binding signal (z-score),[17],-0.146
same,glycan array binding signal (z-score),[18],-0.726
same,glycan array binding signal (z-score),[19],0.17
same,glycan array binding signal (z-score),Fuc(a1-2)Gal(b1-4)Glc,0.039
same,glycan array binding signal (z-score),Fuc(a1-2)Gal(b1-4)Glc6S,-0.225
same,glycan array binding signal (z-score),Fuc(a1-2)Gal(b1-4)GlcNAc,-0.265
same,glycan array binding signal (z-score),[20],-0.22
same,glycan array binding signal (z-score),[21],1.7
same,glycan array binding signal (z-score),[22],-0.372
same,glycan array binding signal (z-score),[23],0.153
same,glycan array binding signal (z-score),[24],-0.772

# An excerpt of these results, with bars between the fields.
binder | measurement | setting | value
SspB A3vp1 (Streptococcus gordonii), Q54186 (protein) MTNEADYQAKLAAYQTELARVQKANADAKATYEKAVEDNKAKNAAIKAENEEIKQRNAVAKTDYEAKLAKYEADLAKYKKEFAAYTAALAEAESKKKQDGYLSEPRSQSLNFKSEPNAIRTIDSSVHQYGQQELDALVKSWGISPTNPDRKKSRAYSYFNAINSNNTYAKLVLEKDKPVDVTYTGLKNSSFNGKKISKVVYTYTLKETGFNDGTKMTMFASSDPTVTAWYNDYFTSTNINVKVKFYDEEGQLMNLTGGLVNFSSLNRGNGSGAIDKDAIESVRNFNGRYIPISGSSIKIHENNSAYADSSNAEKSLGARWNTSEWDTTSSPNNWYGAIVGEITQSEISFNMASSKSGNIWFAFNSNINAIGVPTKPVAPTAPTQPMYETEKPLEPAPVAPSYENEPTPPVKTPDQPEPSKPAAALEHHHHHH | glycan array binding signal (z-score) | [6] | 6.26
same | glycan array binding signal (z-score) | [7] | 0.989
